From the supplement of paper PMC12067093, “Discovery and optimisation of a covalent ligand for TRIM25 and its application to targeted protein ubiquitination” (Chemical Science, 2025)
This is one part of the list.

Chains of the proteins cited; added tags and fusions are not shown. Lines headed by an entry give the natural chain unless they say otherwise; changes in a name come on top.
UniProt Q8NB14: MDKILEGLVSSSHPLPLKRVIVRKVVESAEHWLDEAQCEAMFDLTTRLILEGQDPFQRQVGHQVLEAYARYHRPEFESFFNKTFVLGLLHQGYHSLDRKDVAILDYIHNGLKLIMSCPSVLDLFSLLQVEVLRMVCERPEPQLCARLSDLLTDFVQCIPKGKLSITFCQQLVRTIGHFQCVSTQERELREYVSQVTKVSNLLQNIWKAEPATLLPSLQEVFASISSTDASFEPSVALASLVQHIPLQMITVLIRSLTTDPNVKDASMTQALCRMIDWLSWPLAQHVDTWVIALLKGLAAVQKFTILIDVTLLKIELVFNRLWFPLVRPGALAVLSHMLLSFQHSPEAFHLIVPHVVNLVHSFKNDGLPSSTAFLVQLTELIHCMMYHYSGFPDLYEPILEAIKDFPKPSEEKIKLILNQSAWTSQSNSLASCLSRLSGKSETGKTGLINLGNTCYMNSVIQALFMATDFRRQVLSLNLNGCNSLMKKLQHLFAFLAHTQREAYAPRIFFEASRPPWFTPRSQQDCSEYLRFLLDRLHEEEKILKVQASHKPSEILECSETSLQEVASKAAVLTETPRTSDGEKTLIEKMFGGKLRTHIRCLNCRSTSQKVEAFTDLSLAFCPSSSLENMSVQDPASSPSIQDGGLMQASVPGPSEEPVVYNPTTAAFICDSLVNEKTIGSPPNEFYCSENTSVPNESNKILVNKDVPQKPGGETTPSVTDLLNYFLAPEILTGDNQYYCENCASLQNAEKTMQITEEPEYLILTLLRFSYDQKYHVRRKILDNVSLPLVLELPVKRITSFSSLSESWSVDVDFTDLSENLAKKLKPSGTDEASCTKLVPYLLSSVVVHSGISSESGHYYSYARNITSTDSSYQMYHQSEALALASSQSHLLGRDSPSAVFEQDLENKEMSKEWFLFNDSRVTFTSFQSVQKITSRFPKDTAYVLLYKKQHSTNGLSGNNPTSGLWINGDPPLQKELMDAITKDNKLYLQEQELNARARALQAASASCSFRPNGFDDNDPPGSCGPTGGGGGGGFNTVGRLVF
UniProt O94874: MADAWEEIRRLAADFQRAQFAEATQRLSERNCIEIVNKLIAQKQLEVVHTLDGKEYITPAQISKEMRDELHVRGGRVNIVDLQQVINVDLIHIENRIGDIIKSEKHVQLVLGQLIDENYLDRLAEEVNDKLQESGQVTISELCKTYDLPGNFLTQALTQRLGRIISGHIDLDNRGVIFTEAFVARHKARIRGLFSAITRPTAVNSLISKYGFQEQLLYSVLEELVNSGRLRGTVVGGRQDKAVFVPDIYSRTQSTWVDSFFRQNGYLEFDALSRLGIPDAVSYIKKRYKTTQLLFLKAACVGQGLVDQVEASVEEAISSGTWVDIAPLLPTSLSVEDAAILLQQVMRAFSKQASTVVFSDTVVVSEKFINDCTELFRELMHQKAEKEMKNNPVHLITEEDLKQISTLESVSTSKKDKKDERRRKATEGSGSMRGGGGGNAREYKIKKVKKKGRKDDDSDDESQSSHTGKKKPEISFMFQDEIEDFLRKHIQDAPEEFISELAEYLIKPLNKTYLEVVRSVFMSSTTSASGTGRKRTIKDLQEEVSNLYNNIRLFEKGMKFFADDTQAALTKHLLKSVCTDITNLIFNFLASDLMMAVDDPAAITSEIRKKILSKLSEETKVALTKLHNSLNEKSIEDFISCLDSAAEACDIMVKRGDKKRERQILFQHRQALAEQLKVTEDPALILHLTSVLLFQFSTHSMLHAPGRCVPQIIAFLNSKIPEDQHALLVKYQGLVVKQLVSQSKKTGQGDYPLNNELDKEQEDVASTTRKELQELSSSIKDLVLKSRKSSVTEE
UniProt P11172: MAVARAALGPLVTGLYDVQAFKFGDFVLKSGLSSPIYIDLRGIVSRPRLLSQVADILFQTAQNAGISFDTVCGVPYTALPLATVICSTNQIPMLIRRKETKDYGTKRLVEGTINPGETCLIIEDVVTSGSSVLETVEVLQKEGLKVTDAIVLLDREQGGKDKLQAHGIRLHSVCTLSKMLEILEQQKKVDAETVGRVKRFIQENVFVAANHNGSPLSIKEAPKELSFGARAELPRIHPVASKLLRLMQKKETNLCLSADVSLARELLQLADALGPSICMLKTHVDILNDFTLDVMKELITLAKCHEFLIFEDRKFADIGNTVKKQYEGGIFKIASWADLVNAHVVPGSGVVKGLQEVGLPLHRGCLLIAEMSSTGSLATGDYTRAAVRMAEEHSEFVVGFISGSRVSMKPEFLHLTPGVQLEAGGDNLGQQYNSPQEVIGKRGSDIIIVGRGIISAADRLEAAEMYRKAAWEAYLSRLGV
UniProt Q9BZV1: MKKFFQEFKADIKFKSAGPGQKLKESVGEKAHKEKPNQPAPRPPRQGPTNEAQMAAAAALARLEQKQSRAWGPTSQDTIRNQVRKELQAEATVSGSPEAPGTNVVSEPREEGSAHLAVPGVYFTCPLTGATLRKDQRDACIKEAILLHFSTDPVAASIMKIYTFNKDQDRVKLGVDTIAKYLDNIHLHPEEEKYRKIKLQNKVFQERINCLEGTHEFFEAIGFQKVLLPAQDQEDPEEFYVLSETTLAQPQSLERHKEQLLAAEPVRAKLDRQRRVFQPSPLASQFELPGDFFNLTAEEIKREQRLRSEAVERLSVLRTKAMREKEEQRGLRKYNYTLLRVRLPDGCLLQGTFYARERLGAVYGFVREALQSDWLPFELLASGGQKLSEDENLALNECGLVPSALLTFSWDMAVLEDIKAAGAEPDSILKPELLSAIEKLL
UniProt O94888: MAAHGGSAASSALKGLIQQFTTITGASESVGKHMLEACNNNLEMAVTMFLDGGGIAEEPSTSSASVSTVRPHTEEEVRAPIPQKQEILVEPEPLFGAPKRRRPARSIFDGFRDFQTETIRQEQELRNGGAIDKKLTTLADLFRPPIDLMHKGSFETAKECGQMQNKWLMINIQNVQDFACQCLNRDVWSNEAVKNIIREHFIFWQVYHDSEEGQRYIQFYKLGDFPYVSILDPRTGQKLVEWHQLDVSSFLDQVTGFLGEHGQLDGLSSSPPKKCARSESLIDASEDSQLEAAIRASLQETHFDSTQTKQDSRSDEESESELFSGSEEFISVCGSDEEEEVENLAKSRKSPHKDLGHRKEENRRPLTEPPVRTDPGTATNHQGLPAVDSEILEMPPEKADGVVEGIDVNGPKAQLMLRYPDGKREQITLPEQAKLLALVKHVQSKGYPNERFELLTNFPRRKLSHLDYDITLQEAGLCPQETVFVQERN
UniProt Q9H3U1: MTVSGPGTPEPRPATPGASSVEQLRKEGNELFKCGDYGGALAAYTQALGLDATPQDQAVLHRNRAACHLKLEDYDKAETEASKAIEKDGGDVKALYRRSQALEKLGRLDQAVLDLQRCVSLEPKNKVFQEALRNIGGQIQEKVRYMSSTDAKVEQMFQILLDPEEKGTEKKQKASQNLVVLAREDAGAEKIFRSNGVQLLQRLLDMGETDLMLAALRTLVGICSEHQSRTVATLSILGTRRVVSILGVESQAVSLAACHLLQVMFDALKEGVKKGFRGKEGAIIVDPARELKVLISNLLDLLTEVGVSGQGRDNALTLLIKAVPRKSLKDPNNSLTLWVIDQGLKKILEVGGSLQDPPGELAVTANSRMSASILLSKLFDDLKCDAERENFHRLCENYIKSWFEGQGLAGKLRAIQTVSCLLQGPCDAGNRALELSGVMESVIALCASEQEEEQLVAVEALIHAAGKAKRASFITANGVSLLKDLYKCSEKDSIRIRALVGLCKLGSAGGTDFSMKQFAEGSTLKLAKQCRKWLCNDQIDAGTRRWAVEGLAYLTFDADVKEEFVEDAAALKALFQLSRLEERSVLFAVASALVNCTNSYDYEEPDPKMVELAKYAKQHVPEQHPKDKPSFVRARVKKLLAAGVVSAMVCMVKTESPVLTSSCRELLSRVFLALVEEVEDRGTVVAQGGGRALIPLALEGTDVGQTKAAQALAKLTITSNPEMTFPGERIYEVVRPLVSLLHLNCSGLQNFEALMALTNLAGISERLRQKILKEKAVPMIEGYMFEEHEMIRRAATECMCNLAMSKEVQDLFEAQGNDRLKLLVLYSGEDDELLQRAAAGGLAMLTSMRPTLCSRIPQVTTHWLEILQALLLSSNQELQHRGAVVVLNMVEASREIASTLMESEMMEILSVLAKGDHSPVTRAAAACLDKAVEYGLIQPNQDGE
UniProt P17480: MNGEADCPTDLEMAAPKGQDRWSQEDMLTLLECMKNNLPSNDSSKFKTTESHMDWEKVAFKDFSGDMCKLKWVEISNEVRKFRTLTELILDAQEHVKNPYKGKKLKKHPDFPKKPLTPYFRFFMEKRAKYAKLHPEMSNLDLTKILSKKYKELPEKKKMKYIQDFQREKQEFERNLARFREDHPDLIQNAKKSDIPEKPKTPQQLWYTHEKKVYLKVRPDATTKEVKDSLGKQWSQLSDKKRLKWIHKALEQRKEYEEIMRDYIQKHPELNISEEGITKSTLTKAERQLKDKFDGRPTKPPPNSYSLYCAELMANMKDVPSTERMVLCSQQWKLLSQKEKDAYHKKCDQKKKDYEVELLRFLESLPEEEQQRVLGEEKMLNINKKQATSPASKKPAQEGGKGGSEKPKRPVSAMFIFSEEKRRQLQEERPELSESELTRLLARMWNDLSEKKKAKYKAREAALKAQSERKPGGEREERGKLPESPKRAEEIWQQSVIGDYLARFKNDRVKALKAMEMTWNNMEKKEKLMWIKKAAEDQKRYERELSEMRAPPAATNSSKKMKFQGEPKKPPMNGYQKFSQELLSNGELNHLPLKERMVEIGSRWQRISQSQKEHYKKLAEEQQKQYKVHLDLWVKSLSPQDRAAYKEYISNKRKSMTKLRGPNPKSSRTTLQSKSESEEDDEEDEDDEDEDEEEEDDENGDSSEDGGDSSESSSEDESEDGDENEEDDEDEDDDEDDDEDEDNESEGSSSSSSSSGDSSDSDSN
UniProt Q13107: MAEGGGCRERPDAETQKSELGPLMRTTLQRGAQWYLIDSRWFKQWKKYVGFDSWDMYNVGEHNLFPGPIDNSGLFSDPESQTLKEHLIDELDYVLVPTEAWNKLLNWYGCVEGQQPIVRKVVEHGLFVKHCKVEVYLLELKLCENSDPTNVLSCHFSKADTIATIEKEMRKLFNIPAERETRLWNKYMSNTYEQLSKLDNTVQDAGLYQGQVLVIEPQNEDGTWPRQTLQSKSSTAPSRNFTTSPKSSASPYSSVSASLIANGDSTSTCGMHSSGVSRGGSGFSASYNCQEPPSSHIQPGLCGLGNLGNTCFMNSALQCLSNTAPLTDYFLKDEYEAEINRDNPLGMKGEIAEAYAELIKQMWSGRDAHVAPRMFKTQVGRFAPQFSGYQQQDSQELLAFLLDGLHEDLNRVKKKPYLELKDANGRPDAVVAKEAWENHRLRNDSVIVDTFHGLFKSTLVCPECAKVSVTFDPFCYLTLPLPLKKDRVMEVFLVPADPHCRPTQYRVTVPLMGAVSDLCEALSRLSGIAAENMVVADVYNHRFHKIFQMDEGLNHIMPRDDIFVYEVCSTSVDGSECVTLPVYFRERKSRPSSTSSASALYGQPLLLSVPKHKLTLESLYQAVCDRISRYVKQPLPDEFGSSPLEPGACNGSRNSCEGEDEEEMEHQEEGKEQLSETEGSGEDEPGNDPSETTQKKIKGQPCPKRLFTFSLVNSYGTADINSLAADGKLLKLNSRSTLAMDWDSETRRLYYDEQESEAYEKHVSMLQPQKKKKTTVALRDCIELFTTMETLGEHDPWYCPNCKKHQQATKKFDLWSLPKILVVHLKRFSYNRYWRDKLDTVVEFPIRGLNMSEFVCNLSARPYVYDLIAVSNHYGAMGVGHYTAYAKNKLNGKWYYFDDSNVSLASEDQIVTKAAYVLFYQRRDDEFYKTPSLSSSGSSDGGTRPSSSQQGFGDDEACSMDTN
UniProt Q8N806: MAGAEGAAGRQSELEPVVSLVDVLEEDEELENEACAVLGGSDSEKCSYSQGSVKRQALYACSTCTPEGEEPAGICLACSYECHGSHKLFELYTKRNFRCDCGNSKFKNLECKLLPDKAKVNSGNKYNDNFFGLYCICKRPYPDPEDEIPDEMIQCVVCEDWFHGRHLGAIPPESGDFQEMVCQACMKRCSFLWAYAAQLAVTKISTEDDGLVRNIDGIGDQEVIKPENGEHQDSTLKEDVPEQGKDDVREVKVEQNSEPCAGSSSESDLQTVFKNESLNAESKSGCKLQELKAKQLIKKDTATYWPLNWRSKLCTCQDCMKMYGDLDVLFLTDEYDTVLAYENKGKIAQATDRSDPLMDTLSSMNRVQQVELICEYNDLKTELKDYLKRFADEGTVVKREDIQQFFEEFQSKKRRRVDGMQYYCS
UniProt A6NIH7: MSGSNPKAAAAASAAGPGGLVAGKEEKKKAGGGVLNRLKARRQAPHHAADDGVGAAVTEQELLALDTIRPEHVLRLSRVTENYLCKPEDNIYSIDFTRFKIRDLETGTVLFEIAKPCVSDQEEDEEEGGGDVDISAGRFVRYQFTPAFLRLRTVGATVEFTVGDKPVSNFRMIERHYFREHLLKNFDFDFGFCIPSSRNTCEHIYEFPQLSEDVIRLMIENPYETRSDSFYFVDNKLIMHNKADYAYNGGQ

Compound: Cc1cc(ccc1-c1ccccc1)C(=O)N1CCCN(CC1)C(=O)CCl [compound 10]
Test: probe-labelled cysteine peptide fold change vs DMSO (competition) (log2 fold change); higher = less target engagement (more negative = stronger competition)
Details: THP-1, incubation time: 4 h
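Note: competitive profiling in live THP-1 cells: cysteine peptides tagged with an iodoacetamide desthiobiotin (IA-DTB) probe, intensity after compound treatment relative to DMSO-treated cells.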

| Target | probe-labelled cysteine peptide fold change (10 µM) | probe-labelled cysteine peptide fold change (50 µM) |
| --- | --- | --- |
| USP8_P40818_939_STVQCLTCHK (UniProt P40818) | -0.0503 | 0.133 |
| UGDH_O60701_8+9+20_KICCIGAGYVGGPTCSVIAHMCPEIR (UniProt O60701) | 0.0679 | 0.221 |
| USP19_O94966_659_LVCPVCAK (UniProt O94966) | 0.0332 | -0.204 |
| UHRF2_Q96PU4_347_CHSCSCR (UniProt Q96PU4) | 0.165 | 0.27 |
| UHRF1_Q96T88_744_VEETFQCICCQELVFRPITTVCQHNVCK (UniProt Q96T88) | 0.106 | 0.203 |
| UQCC2_Q9BRT2_53_EGENTQVAEPEACDQMYESLAR (UniProt Q9BRT2) | -0.281 | 0.526 |
| USP38_Q8NB14_834_LKPSGTDEASCTK (UniProt Q8NB14) | -0.1 | -0.417 |
| UFL1_O94874_649_SIEDFISCLDSAAEACDIMVK (UniProt O94874) | 0.171 | 0.0481 |
| UMPS_P11172_304_CHEFLIFEDR (UniProt P11172) | 0.122 | 0.192 |
| USP19_O94966_1017_LEDKGDTPLELGDDCSLALVWR (UniProt O94966) | -0.0163 | -0.146 |
| UBXN6_Q9BZV1_210_INCLEGTHEFFEAIGFQK (UniProt Q9BZV1) | -0.124 | -0.192 |
| UBXN7_O94888_478_KLSHLDYDITLQEAGLCPQETVFVQER (UniProt O94888) | 0.134 | -0.0436 |
| UNC45A_Q9H3U1_384_CDAERENFHR (UniProt Q9H3U1) | -0.0746 | -0.616 |
| UBTF_P17480_33_GQDRWSQEDMLTLLECMK (UniProt P17480) | -0.0572 | -0.768 |
| USP19_O94966_1169_EEQLPSYDLYAVINHYGGMIGGHYTACAR (UniProt O94966) | -0.00515 | 0.0872 |
| USP4_Q13107_624_LTLESLYQAVCDR (UniProt Q13107) | 0.118 | -0.183 |
| USP6_P35125_1237_ENGAGQICELADALSR (UniProt P35125) | -0.416 | -0.707 |

Already shown: an excerpt of the list.

| Target | probe-labelled cysteine peptide fold change (10 µM) | probe-labelled cysteine peptide fold change (50 µM) |
| --- | --- | --- |
| USP38_Q8NB14_834_LKPSGTDEASCTK (UniProt Q8NB14) | -0.1 | -0.417 |
| UFL1_O94874_649_SIEDFISCLDSAAEACDIMVK (UniProt O94874) | 0.171 | 0.0481 |
| UMPS_P11172_304_CHEFLIFEDR (UniProt P11172) | 0.122 | 0.192 |
| USP19_O94966_1017_LEDKGDTPLELGDDCSLALVWR (UniProt O94966) | -0.0163 | -0.146 |
| UBXN6_Q9BZV1_210_INCLEGTHEFFEAIGFQK (UniProt Q9BZV1) | -0.124 | -0.192 |
| UBXN7_O94888_478_KLSHLDYDITLQEAGLCPQETVFVQER (UniProt O94888) | 0.134 | -0.0436 |
| UNC45A_Q9H3U1_384_CDAERENFHR (UniProt Q9H3U1) | -0.0746 | -0.616 |
| UBTF_P17480_33_GQDRWSQEDMLTLLECMK (UniProt P17480) | -0.0572 | -0.768 |
| USP19_O94966_1169_EEQLPSYDLYAVINHYGGMIGGHYTACAR (UniProt O94966) | -0.00515 | 0.0872 |
| USP4_Q13107_624_LTLESLYQAVCDR (UniProt Q13107) | 0.118 | -0.183 |

(list continues)

| Target | probe-labelled cysteine peptide fold change (10 µM) | probe-labelled cysteine peptide fold change (50 µM) |
| --- | --- | --- |
| UBR7_Q8N806_46_CSYSQGSVKR (UniProt Q8N806) | -0.118 | -0.607 |
| USP6_P35125_584_CYGDLVQELWSGTQK (UniProt P35125) | -0.0422 | -0.202 |
| UHRF1BP1L_A0JNW5_647_SCDNFNLLHPIFQR (UniProt A0JNW5) | -0.0862 | -0.265 |
| UNG_P13051_141_HYTVYPPPHQVFTWTQMCDIK (UniProt P13051) | -0.00721 | 0.124 |
| USP24_Q9UPU5_1556_TAECETSEADNILLAGHLR (UniProt Q9UPU5) | -0.139 | -0.0485 |
| UHRF1BP1L_A0JNW5_618_HCPNCR (UniProt A0JNW5) | -0.292 | -0.0428 |
| USP39_Q53GS9_105_HCPYLDTINR (UniProt Q53GS9) | -0.189 | -0.101 |
| USP19_O94966_1138_FCIGQK (UniProt O94966) | -0.0378 | -0.0473 |
| UBTF_P17480_309_DKFDGRPTKPPPNSYSLYCAELMANMK (UniProt P17480) | 0.0169 | -0.71 |
| UPF1_Q92900_133_DLPIHACSYCGIHDPACVVYCNTSK (UniProt Q92900) | -0.021 | -0.186 |
| URB2_Q14146_205_AFGDVTAHLLQPCLVLR (UniProt Q14146) | 0.142 | 0.0509 |
| UQCRH_P07919_53_ERLELCDER (UniProt P07919) | -0.198 | -0.0582 |
| UGGT1_Q9NYU2_159_KTCESDTLEALLLTASERPKPLLFK (UniProt Q9NYU2) | -0.163 | -0.696 |
| USP48_Q86UV5_512+514_WLDESTPTKPIDNHACLCSHDK (UniProt Q86UV5) | -0.0825 | -1.16 |
| USP47_Q96K76_856_AGGDSGNVDDDCER (UniProt Q96K76) | -0.114 | -0.0796 |
| UNC119B_A6NIH7_201_NTCEHIYEFPQLSEDVIR (UniProt A6NIH7) | 0.0555 | 0.0712 |
| USP5_P45974_219_ENLWLNLTDGSILCGR (UniProt P45974) | -0.0536 | 0.0911 |
